Laboratory results taken from article PMC5685703.
Results are given in words; binding and its absence hold for the method and conditions named. Binding seen in cells or lysates may run through a third protein. For some assays here: Binding calls can cover weak binding; strength is not graded here.

Amino acid sequences for entries named in this document (tags omitted). A change or cut given only in a name is not applied to a line headed by its entry.
UniProt P35226: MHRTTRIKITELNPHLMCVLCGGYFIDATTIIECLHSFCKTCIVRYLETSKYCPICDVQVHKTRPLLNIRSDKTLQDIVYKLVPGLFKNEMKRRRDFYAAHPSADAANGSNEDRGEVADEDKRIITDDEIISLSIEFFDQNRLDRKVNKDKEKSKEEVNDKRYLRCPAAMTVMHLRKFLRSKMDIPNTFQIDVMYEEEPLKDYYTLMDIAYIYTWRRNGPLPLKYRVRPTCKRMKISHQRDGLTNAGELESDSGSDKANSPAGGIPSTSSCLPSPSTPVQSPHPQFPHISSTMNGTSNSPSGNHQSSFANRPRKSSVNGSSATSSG
UniProt Q13535: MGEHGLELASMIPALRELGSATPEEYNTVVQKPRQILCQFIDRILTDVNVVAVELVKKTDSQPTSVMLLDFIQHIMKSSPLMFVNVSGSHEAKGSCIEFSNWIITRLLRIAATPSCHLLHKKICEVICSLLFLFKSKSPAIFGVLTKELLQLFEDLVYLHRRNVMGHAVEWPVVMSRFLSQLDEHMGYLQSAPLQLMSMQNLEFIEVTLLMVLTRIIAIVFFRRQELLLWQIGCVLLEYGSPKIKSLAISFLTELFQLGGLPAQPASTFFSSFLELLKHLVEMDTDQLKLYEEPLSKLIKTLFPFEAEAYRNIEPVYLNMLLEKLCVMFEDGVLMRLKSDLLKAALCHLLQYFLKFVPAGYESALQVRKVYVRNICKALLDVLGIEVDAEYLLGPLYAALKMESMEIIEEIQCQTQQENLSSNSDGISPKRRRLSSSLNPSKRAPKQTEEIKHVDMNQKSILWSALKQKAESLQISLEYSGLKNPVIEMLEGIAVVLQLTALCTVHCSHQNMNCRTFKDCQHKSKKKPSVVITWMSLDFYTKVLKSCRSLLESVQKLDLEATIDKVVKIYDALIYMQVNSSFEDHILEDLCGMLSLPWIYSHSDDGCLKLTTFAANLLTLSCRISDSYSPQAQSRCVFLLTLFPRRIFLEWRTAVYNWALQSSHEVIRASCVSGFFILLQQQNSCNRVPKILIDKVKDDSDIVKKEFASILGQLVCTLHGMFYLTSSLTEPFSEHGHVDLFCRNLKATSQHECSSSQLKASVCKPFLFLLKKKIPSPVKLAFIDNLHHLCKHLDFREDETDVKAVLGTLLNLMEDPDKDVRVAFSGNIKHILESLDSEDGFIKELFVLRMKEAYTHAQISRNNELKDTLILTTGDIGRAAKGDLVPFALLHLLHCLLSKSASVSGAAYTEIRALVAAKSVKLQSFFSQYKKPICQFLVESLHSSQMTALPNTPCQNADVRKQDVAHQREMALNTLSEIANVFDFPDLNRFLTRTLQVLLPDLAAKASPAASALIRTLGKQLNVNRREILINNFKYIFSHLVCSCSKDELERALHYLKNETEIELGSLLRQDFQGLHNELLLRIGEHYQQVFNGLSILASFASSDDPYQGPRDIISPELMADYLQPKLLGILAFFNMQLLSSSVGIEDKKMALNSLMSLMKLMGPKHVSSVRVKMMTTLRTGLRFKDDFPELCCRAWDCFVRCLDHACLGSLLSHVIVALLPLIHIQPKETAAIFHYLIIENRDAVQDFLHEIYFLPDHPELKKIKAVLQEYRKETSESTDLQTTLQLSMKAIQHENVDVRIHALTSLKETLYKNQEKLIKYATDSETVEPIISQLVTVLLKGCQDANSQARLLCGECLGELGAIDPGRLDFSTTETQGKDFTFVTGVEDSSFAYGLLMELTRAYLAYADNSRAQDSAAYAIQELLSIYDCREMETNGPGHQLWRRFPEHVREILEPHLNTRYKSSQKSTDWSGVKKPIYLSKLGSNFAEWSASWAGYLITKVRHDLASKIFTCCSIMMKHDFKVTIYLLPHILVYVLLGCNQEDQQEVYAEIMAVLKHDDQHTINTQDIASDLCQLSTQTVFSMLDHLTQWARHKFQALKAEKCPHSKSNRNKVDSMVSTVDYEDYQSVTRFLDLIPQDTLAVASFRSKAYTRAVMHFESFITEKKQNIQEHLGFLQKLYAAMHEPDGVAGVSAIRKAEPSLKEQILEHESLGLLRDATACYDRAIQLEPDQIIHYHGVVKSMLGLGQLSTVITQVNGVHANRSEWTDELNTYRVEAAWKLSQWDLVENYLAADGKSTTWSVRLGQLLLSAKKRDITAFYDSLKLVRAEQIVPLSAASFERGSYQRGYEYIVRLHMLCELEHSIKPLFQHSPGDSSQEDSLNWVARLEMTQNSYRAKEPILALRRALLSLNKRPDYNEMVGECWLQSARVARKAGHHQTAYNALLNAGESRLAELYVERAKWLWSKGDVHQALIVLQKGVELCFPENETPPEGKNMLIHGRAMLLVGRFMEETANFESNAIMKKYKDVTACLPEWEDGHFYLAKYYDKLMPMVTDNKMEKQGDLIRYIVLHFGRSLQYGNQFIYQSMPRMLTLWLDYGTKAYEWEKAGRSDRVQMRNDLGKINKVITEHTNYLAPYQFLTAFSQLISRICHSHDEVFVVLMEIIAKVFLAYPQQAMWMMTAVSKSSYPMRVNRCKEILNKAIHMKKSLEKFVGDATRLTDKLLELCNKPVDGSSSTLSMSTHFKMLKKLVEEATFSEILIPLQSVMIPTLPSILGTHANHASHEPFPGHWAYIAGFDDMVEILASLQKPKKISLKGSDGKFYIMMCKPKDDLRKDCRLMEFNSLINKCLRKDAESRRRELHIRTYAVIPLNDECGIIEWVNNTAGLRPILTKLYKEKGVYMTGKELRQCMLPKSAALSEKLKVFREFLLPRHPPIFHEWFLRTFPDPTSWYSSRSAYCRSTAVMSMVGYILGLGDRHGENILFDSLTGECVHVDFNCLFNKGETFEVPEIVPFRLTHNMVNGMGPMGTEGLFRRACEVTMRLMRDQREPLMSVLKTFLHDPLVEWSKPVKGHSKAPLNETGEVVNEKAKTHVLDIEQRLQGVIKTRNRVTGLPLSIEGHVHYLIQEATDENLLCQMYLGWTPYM

What was measured:
[1] = molecular target: BMI1ΔNLS (UniProt P35226); assay: co-IP; MCF7 lines stably expressing FLAG-tagged BMI1 deletion mutants, without or with HU; lysates treated with benzonase 1 U/μl on ice for 1 hour; IP with monoclonal anti-FLAG (M2); Western blot for ATR, TOPBP1 and the mutants (polyclonal anti-FLAG)
[2] = molecular target: BMI1ΔRF (UniProt P35226); assay: as above
[3] = molecular target: BMI1ΔHT (UniProt P35226); assay: as above
[4] = molecular target: BMI1ΔPS (UniProt P35226); assay: as above
[5] = molecular target: ATR (endogenous, MCF7 cells) (human (endogenous in MCF7)) (UniProt Q13535); assay: co-IP; MCF7 BMI1ΔNLS cells; lysate treated with benzonase 1 U/μl on ice for 1 hour; IP with anti-ATR; Western blot with polyclonal anti-FLAG

binding [1]	binding [2]	binding [3]	binding [4]	binding [5]	Substance
binds	binds	no binding	no binding		ATR (endogenous, MCF7 cells) (from UniProt Q13535 1-2644)
				binds	BMI1ΔNLS (from UniProt P35226)
